Measured values from article PMC6817822.
No constants are given. Whether binding was seen depends on the method and setting. In cells and extracts the contact can be indirect. Binding can be weak; no strength is given.

Sequences of proteins named here, by UniProt entry; tags and fusion partners are left off. A change or cut given only in a name is not applied to a line headed by its entry.
UniProt P46937: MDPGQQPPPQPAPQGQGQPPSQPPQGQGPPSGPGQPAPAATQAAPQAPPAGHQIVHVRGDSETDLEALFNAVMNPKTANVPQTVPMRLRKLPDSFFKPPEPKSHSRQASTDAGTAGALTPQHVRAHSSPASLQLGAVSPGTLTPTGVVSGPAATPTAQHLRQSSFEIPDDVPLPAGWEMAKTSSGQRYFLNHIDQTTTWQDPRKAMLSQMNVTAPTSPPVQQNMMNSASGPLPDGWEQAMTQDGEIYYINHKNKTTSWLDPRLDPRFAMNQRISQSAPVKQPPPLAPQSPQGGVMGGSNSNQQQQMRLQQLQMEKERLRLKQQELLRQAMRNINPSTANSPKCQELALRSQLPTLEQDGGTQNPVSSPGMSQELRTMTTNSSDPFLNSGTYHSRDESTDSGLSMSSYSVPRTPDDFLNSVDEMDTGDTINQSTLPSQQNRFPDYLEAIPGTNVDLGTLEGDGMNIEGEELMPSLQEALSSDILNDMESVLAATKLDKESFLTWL
UniProt P67775: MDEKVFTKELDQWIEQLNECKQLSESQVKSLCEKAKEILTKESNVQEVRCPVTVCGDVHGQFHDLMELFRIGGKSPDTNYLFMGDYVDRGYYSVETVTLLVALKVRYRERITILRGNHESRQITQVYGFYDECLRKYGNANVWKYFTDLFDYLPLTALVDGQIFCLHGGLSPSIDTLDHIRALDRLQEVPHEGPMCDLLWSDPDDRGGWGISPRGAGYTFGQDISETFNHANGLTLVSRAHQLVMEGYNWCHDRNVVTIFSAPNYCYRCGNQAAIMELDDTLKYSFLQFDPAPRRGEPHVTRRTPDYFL

Molecular target: Yes-associated protein (YAP) (human (endogenous in CD18/HPAF)) (UniProt P46937)
Test: co-IP; reciprocal co-immunoprecipitation from 1 mg lysate of CD18/HPAF cells expressing Control-shRNA or PR55α-shRNA, with anti-PR55α (100C1) or anti-YAP antibody; immunoblotting; nonimmunized IgG as control; in Fig. 6b half of the anti-PR55α precipitate was treated with shrimp alkaline phosphatase (10 units/ml, 37 °C, 1 h)

binding: binds
Substance: PP2A-C subunit (catalytic subunit) (from UniProt P67775)
